Experimental data from paper PMC9714148.
These are yes or no findings as the source states them, for the method shown. Binding seen in cells or lysates may run through a third protein. Some results given as binding are weak or reduced against the parent protein; the word gives no strength.

Chains of the proteins cited; added tags and fusions are not shown.
UniProt P13864: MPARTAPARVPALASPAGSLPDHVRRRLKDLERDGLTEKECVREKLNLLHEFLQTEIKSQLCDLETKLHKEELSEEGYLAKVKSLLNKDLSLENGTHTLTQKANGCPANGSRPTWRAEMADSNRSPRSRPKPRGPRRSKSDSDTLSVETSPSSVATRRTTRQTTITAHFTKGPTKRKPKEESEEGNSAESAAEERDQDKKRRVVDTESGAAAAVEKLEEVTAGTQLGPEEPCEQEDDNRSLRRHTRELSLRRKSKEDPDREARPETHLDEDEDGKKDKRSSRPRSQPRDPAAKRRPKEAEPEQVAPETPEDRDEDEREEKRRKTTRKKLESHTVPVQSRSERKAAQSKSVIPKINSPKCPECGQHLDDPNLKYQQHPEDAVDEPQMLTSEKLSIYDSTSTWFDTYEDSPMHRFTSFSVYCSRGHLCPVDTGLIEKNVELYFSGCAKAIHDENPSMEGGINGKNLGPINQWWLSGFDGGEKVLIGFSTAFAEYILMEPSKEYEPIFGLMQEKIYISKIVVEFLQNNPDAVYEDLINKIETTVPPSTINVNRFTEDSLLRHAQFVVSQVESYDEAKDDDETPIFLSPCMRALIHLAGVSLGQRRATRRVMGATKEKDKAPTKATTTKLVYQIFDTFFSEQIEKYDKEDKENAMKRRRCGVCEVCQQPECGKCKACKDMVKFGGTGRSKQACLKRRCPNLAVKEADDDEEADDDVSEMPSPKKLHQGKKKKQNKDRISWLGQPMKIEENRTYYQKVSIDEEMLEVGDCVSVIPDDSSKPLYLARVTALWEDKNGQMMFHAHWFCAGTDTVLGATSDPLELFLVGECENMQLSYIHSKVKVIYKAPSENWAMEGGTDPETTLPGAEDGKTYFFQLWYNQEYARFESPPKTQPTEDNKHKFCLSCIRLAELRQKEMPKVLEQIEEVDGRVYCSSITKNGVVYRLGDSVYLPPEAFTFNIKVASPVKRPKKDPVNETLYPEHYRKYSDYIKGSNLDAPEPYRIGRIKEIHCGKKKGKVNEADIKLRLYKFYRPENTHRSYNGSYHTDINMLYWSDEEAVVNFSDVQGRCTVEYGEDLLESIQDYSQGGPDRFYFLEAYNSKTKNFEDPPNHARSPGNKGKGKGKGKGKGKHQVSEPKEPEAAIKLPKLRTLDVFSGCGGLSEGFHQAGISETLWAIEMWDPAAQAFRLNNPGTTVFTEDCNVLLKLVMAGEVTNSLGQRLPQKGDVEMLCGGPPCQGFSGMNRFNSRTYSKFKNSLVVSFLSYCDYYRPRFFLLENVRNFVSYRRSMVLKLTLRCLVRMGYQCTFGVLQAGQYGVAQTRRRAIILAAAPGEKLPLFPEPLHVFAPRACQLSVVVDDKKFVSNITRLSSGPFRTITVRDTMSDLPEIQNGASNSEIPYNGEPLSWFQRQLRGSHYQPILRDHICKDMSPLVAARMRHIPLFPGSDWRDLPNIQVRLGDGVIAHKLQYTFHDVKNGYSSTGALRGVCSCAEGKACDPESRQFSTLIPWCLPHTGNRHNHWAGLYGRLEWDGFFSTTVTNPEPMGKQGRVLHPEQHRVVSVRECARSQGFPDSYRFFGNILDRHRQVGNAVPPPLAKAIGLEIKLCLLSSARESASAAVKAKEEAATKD
UniProt Q8C3P7: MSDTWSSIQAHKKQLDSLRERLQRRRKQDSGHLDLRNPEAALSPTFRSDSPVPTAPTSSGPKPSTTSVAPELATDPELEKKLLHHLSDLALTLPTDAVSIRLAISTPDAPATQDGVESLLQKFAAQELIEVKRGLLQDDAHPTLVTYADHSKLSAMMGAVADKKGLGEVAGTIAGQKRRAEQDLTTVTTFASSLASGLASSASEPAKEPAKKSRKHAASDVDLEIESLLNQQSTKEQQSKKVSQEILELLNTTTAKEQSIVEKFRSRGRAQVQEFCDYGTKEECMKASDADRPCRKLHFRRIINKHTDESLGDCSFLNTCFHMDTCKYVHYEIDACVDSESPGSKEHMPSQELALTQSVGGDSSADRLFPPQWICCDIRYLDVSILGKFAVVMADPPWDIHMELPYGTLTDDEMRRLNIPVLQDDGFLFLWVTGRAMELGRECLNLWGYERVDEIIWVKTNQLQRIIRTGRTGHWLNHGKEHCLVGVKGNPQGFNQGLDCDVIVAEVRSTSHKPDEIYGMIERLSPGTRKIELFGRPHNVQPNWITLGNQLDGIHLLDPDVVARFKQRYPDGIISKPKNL

Columns and labels:
Test in all cases: co-IP; endogenous proteins in lysate of C2C12 cells differentiated for 4 d; IP with 5 ug antibody overnight at 4 °C, Protein A/G PLUS-Agarose 2 h at 4 °C, Western blot; DNA methylases as bait and, reversed, RNA methylases as bait; nonspecific IgG as control
[1] = biological target: DNMT3B (mouse (endogenous in C2C12)) (UniProt O88509)
[2] = biological target: DNMT1 (mouse (endogenous in C2C12)) (UniProt P13864)
[3] = biological target: METTL3 (mouse (endogenous in C2C12)) (UniProt Q8C3P7)
[4] = biological target: T1, METTL14 (mouse (endogenous in C2C12)) (UniProt Q3UIK4)
T1 sequence: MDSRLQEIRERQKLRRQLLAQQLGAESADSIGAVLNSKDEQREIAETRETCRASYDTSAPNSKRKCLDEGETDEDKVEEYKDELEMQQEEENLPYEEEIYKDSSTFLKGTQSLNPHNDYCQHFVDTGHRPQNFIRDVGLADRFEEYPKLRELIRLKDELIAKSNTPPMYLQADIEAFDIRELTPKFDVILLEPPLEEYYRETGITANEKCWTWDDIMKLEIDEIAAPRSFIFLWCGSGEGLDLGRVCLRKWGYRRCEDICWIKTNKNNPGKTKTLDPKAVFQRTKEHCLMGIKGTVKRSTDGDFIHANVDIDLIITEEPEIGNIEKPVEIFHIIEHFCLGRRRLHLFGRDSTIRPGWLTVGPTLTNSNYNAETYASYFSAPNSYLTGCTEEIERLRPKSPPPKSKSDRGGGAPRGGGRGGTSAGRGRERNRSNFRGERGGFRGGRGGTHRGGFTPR

Measured: binding

B1: METTL14 (protein, UniProt Q3UIK4 1-456)
chain: MDSRLQEIRERQKLRRQLLAQQLGAESADSIGAVLNSKDEQREIAETRETCRASYDTSAPNSKRKCLDEGETDEDKVEEYKDELEMQQEEENLPYEEEIYKDSSTFLKGTQSLNPHNDYCQHFVDTGHRPQNFIRDVGLADRFEEYPKLRELIRLKDELIAKSNTPPMYLQADIEAFDIRELTPKFDVILLEPPLEEYYRETGITANEKCWTWDDIMKLEIDEIAAPRSFIFLWCGSGEGLDLGRVCLRKWGYRRCEDICWIKTNKNNPGKTKTLDPKAVFQRTKEHCLMGIKGTVKRSTDGDFIHANVDIDLIITEEPEIGNIEKPVEIFHIIEHFCLGRRRLHLFGRDSTIRPGWLTVGPTLTNSNYNAETYASYFSAPNSYLTGCTEEIERLRPKSPPPKSKSDRGGGAPRGGGRGGTSAGRGRERNRSNFRGERGGFRGGRGGTHRGGFTPR
binds: [1] | [2] | [3]

B2: WTAP (protein, UniProt Q9ER69 1-396)
chain: MTNEEPLPKKVRLSETDFKVMARDELILRWKQYEAYVQALEGKYTDLNSNDVTGLRESEEKLKQQQQESARRENILVMRLATKEQEMQECTTQIQYLKQVQQPSVAQLRSTMVDPAINLFFLKMKGELEQTKDKLEQAQNELSAWKFTPDSQTGKKLMAKCRMLIQENQELGRQLSQGRIAQLEAELALQKKYSEELKSSQDELNDFIIQLDEEVEGMQSTILVLQQQLKETRQQLAQYQQQQSQASAPSTSRTTSSEPVDQAEVTSKDCSRLANGPSNGSSSRQRTSGSGFHREGSTPEDDFPSSSGNGNKASNSSEERTGRGGSSYINPLSAGYESVDSPTGSENSLTHHSNDTDSSHDPQEEKAVSGKGNRTVGSRHVQNGLDSSVNVQGAVL
binds: all assays above
